Data: PMC4332150
These are yes or no findings as the source states them, for the method shown. Binding seen in cells or lysates may run through a third protein. Here binding means that the protein was enriched with, or labelled near, the bait; the list need not be complete. For part of these data: Tags and fused reporters may be left off the sequences shown.

Amino acid sequences for entries named in this document (tags omitted).
UniProt P19838: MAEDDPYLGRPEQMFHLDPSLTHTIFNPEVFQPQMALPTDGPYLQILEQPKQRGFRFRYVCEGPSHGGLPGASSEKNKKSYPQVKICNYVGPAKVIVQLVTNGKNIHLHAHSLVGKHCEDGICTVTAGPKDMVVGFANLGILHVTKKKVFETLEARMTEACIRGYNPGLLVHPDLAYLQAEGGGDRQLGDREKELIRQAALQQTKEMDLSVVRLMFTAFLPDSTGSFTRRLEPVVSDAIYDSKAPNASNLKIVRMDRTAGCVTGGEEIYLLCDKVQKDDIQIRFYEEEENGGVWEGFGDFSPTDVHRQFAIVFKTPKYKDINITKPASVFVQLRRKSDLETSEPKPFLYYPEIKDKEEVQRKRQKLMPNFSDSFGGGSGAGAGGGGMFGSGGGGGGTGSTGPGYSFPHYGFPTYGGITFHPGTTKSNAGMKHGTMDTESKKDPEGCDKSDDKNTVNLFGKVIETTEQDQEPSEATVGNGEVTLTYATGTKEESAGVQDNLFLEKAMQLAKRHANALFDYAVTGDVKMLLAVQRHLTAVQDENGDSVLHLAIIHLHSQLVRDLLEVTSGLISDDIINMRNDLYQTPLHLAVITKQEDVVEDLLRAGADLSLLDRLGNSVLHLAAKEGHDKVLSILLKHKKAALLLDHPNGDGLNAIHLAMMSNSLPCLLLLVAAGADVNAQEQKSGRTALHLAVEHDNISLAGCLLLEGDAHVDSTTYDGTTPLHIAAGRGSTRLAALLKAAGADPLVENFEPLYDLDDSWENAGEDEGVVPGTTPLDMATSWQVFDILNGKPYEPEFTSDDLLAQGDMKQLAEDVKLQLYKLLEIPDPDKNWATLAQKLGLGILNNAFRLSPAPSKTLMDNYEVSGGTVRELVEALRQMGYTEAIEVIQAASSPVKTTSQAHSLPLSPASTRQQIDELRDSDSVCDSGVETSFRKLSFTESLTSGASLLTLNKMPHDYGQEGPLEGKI

Columns and labels:
[1] = biological target: SFB-tagged RBPJ (human), Q06330; test: affinity purification with mass spectrometry; TAP (streptavidin beads, biotin elution, S-protein beads; NETN buffer) of C-terminally SFB-tagged bait from HEK293T; soluble fraction (supernatant of the NETN lysate); forward and reciprocal purifications; conditions: remark: other sources report otherwise
[2] = biological target: SFB-tagged RBPJ (human), Q06330; test: affinity purification with mass spectrometry; TAP (streptavidin beads, biotin elution, S-protein beads; NETN buffer) of C-terminally SFB-tagged bait from HEK293T; chromatin fraction (pellet after NETN lysis, digested with TurboNuclease); forward and reciprocal purifications; some baits also after drug treatment; conditions: remark: other sources report otherwise
SFB-tagged FOXN2 (human) = biological target: T1, SFB-tagged FOXN2 (human) (UniProt P32314); test: as above
T1 sequence: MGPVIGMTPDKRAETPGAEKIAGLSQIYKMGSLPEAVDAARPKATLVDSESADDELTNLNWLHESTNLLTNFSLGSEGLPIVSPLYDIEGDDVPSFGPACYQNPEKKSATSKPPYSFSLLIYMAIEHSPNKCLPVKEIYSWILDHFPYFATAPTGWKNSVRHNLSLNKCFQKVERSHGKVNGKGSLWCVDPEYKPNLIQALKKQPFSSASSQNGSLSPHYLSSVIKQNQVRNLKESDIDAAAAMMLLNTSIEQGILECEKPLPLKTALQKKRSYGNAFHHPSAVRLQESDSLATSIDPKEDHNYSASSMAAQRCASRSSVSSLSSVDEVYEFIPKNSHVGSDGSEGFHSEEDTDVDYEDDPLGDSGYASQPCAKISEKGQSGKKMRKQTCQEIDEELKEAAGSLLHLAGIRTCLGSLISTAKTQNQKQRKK

[3] = biological target: T2, JUN (endogenous) (human (endogenous in HEK293T)), P05412; test: affinity purification with mass spectrometry; AP/MS with antibodies against endogenous JUN; chromatin fraction; conditions: remark: other sources report otherwise
T2 chain: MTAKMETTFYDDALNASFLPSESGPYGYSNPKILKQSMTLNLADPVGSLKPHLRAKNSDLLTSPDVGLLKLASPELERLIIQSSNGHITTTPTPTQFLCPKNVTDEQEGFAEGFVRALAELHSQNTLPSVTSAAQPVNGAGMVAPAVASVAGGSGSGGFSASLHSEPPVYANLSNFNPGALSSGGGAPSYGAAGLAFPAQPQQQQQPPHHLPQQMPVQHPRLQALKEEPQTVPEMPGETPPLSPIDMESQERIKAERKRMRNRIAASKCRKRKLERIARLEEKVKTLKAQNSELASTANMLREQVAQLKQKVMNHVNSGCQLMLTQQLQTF

[4] = biological target: T2, JUN (endogenous) (human (endogenous in …)); test: affinity purification with mass spectrometry; AP/MS with antibodies against endogenous JUN; soluble fraction; conditions: remark: other sources report otherwise
[5] = biological target: SFB-tagged NF-κB1 (human) (UniProt P19838); test: affinity purification with mass spectrometry; same TAP/MS of SFB-tagged bait from HEK293T; the fraction in which the hit was found is not given

B1: FBXO42 (endogenous), Q6P3S6 1-717 (protein)
chain: MASSSDSEDDSFMAVDQEETVLEGTMDQDEEPHPVLEAEETRHNRSMSELPEEVLEYILSFLSPYQEHKTAALVCKQWYRLIKGVAHQCYHGFMKAVQEGNIQWESRTYPYPGTPITQRFSHSACYYDANQSMYVFGGCTQSSCNAAFNDLWRLDLNSKEWIRPLASGSYPSPKAGATLVVYKDLLVLFGGWTRPSPYPLHQPERFFDEIHTYSPSKNWWNCIVTTHGPPPMAGHSSCVIDDKMIVFGGSLGSRQMSNDVWVLDLEQWAWSKPNISGPSPHPRGGQSQIVIDDATILILGGCGGPNALFKDAWLLHMHSGPWAWQPLKVENEEHGAPELWCHPACRVGQCVVVFSQAPSGRAPLSPSLNSRPSPISATPPALVPETREYRSQSPVRSMDEAPCVNGRWGTLRPRAQRQTPSGSREGSLSPARGDGSPILNGGSLSPGTAAVGGSSLDSPVQAISPSTPSAPEGYDLKIGLSLAPRRGSLPDQKDLRLGSIDLNWDLKPASSSNPMDGMDNRTVGGSMRHPPEQTNGVHTPPHVASALAGAVSPGALRRSLEAIKAMSSKGPSASAALSPPLGSSPGSPGSQSLSSGETVPIPRPGPAQGDGHSLPPIARRLGHHPPQSLNVGKPLYQSMNCKPMQMYVLDIKDTKEKGRVKWKVFNSSSVVGPPETSLHTVVQGRGELIIFGGLMDKKQNVKYYPKTNALYFVRAKR
binding [1]: binds | binding [2]: binds

B2: RFX1 (endogenous) (protein, UniProt P22670 1-979)
chain: MATQAYTELQAAPPPSQPPQAPPQAQPQPPPPPPPAAPQPPQPPTAAATPQPQYVTELQSPQPQAQPPGGQKQYVTELPAVPAPSQPTGAPTPSPAPQQYIVVTVSEGAMRASETVSEASPGSTASQTGVPTQVVQQVQGTQQRLLVQTSVQAKPGHVSPLQLTNIQVPQQALPTQRLVVQSAAPGSKGGQVSLTVHGTQQVHSPPEQSPVQANSSSSKTAGAPTGTVPQQLQVHGVQQSVPVTQERSVVQATPQAPKPGPVQPLTVQGLQPVHVAQEVQQLQQVPVPHVYSSQVQYVEGGDASYTASAIRSSTYSYPETPLYTQTASTSYYEAAGTATQVSTPATSQAVASSGSMPMYVSGSQVVASSTSTGAGASNSSGGGGSGGGGGGGGGGGGGGSGSTGGGGSGAGTYVIQGGYMLGSASQSYSHTTRASPATVQWLLDNYETAEGVSLPRSTLYCHYLLHCQEQKLEPVNAASFGKLIRSVFMGLRTRRLGTRGNSKYHYYGLRIKASSPLLRLMEDQQHMAMRGQPFSQKQRLKPIQKMEGMTNGVAVGQQPSTGLSDISAQVQQYQQFLDASRSLPDFTELDLQGKVLPEGVGPGDIKAFQVLYREHCEAIVDVMVNLQFTLVETLWKTFWRYNLSQPSEAPPLAVHDEAEKRLPKAILVLLSKFEPVLQWTKHCDNVLYQGLVEILIPDVLRPIPSALTQAIRNFAKSLESWLTHAMVNIPEEMLRVKVAAAGAFAQTLRRYTSLNHLAQAARAVLQNTAQINQMLSDLNRVDFANVQEQASWVCRCEDRVVQRLEQDFKVTLQQQNSLEQWAAWLDGVVSQVLKPYQGSAGFPKAAKLFLLKWSFYSSMVIRDLTLRSAASFGSFHLIRLLYDEYMYYLIEHRVAQAKGETPIAVMGEFANLATSLNPLDPDKDEEEEEEEESEDELPQDISLAAGGESPALGPETLEPPAKLARTDARGLFVQALPSS
binding (SFB-tagged FOXN2 (human)): binds

B3: ATF2 (endogenous), P15336 1-505 (protein)
chain: MKFKLHVNSARQYKDLWNMSDDKPFLCTAPGCGQRFTNEDHLAVHKHKHEMTLKFGPARNDSVIVADQTPTPTRFLKNCEEVGLFNELASPFENEFKKASEDDIKKMPLDLSPLATPIIRSKIEEPSVVETTHQDSPLPHPESTTSDEKEVPLAQTAQPTSAIVRPASLQVPNVLLTSSDSSVIIQQAVPSPTSSTVITQAPSSNRPIVPVPGPFPLLLHLPNGQTMPVAIPASITSSNVHVPAAVPLVRPVTMVPSVPGIPGPSSPQPVQSEAKMRLKAALTQQHPPVTNGDTVKGHGSGLVRTQSEESRPQSLQQPATSTTETPASPAHTTPQTQSTSGRRRRAANEDPDEKRRKFLERNRAAASRCRQKRKVWVQSLEKKAEDLSSLNGQLQSEVTLLRNEVAQLKQLLLAHKDCPVTAMQKKSGYHTADKDDSSEDISVPSSPHTEAIQHSSVSTSNGVSSTSKAEAVATSVLTQMADQSTEPALSQIVMAPSSQSQPSGS
binding [3]: binds | binding [4]: binds

B4: RELB (endogenous) (protein, UniProt Q01201 1-579)
chain: MLRSGPASGPSVPTGRAMPSRRVARPPAAPELGALGSPDLSSLSLAVSRSTDELEIIDEYIKENGFGLDGGQPGPGEGLPRLVSRGAASLSTVTLGPVAPPATPPPWGCPLGRLVSPAPGPGPQPHLVITEQPKQRGMRFRYECEGRSAGSILGESSTEASKTLPAIELRDCGGLREVEVTACLVWKDWPHRVHPHSLVGKDCTDGICRVRLRPHVSPRHSFNNLGIQCVRKKEIEAAIERKIQLGIDPYNAGSLKNHQEVDMNVVRICFQASYRDQQGQMRRMDPVLSEPVYDKKSTNTSELRICRINKESGPCTGGEELYLLCDKVQKEDISVVFSRASWEGRADFSQADVHRQIAIVFKTPPYEDLEIVEPVTVNVFLQRLTDGVCSEPLPFTYLPRDHDSYGVDKKRKRGMPDVLGELNSSDPHGIESKRRKKKPAILDHFLPNHGSGPFLPPSALLPDPDFFSGTVSLPGLEPPGGPDLLDDGFAYDPTAPTLFTMLDLLPPAPPHASAVVCSGGAGAVVGETPGPEPLTLDSYQAPGPGDGGTASLVGSNMFPNHYREAAFGGGLLSPGPEAT
binding [5]: binds
